This passage reports binding results from PMC5548744.

Sequences of proteins named here, by UniProt entry; tags and fusion partners are left off.
UniProt Q8K371: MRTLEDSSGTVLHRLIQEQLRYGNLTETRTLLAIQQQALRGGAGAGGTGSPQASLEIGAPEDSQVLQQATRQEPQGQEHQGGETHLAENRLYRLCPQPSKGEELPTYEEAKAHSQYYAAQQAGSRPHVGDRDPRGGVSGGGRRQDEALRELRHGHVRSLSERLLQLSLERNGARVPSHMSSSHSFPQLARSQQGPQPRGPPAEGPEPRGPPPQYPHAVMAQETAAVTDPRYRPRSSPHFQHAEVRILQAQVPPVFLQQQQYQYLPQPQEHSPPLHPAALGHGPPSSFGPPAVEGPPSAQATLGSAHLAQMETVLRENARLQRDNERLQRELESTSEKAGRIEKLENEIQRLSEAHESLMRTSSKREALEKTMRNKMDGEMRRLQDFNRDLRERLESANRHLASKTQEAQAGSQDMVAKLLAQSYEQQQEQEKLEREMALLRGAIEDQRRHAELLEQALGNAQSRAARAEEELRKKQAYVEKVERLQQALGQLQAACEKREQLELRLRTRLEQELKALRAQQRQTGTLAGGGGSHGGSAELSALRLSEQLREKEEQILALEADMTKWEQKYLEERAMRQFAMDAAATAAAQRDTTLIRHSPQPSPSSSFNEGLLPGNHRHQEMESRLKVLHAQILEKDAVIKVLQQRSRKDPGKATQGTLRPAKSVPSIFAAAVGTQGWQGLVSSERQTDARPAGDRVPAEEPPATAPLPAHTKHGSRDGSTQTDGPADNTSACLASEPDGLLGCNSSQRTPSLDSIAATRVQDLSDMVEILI

This assay has as its target Angiomotin-Like-2 (AmotL2), endogenous in MS-1 mouse endothelial cells (mouse (endogenous in MS-1)) (UniProt Q8K371). The assay is described as follows: co-IP; MS-1 cell lysate (50 mM Tris-HCl pH 7.6, 150 mM NaCl, 1 mM EDTA, 1% Nonidet P40); precipitated with rabbit antibody against the C-terminal motif of human amotL2, Protein G Sepharose, 4 °C; partners detected by western blot. (In western blotting, separated proteins are transferred to a membrane and probed.)

No constants are given. Whether binding was seen depends on the method and setting. Binding seen in cells or lysates may run through a third protein. Some entries that bind do so weakly or less than the wild type.

B1: Par3, 150 kDa isoform, endogenous in MS-1 cells (protein, UniProt Q99NH2-2 1-1029)
chain: MKVTVCFGRTRVVVPCGDGRMKVFSLIQQAVTRYRKAVAKDPNYWIQVHRLEHGDGGILDLDDILCDVADDKDRLVAVFDEQDPHHGGDGTSASFTGTQSPEIFGSELGTNNVSAFQPYQATSEIEVTPSVLRANMPLHVRRSSDPALTGLSTSVSDNNFSSEEPSRKNPTRWSTTAGFLKQNTAGSPKTCDRKKDENYRSLPRDPSSWSNQFQRDNARSSLSASHPMVDRWLEKQEQDEEGTEEDSSRVEPVGHADTGLENMPNFSLDDMVKLVQVPNDGGPLGIHVVPFSARGGRTLGLLVKRLEKGGKAEQENLFHENDCIVRINDGDLRNRRFEQAQHMFRQAMRARVIWFHVVPAANKEQYEQLSQREKNNYSPGRFSPDSHCVANRSVANNAPQALPRAPRLSQPPEQLDAHPRLPHSAHASTKPPAAPALAPPSVLSTNVGSVYNTKKVGKRLNIQLKKGTEGLGFSITSRDVTIGGSAPIYVKNILPRGAAIQDGRLKAGDRLIEVNGVDLAGKSQEEVVSLLRSTKMEGTVSLLVFRQEEAFHPREMNAEPSQMQTPKETKAEDEDVVLTPDGTREFLTFEVPLNDSGSAGLGVSVKGNRSKENHADLGIFVKSIINGGAASKDGRLRVNDQLIAVNGESLLGKANQEAMETLRRSMSTEGNKRGMIQLIVARRISRCNELRSPGSPAAPELPIETELDDRERRISHSLYSGIEGLDESPTRNAALSRIMGKCQLSPTVNMPHDDTVMIEDDRLPVLPPHLSDQSSSSSHDDVGFIMTEAGTWAKATISDSADCSLSPDVDPVLAFQREGFGRQSMSEKRTKQFSDASQLDFVKTRKSKSMDLVADETKLNTVDDQRAGSPSRDVGPSLGLKKSSSLESLQTAVAEVTLNGNIPFHRPRPRIIRGRGCNESFRAAIDKSYDKPMVDDDDEGMETLEEDTEESSRSGRESVSTSSDQPSYSLERQMNGDPEKRDKTERKKDKAGKDKKKDREKEKDKLKAKKGMLKGLGDMFRFGKHRKDD
As for B1, the binding entry is on record as “binds”.

B2: Par3, 100 kDa isoform, endogenous in MS-1 cells (protein, UniProt Q99NH2-3 1-744)
chain: MKVTVCFGRTRVVVPCGDGRMKVFSLIQQAVTRYRKAVAKDPNYWIQVHRLEHGDGGILDLDDILCDVADDKDRLVAVFDEQDPHHGGDGTSASFTGTQSPEIFGSELGTNNVSAFQPYQATSEIEVTPSVLRANMPLHVRRSSDPALTGLSTSVSDNNFSSEEPSRKNPTRWSTTAGFLKQNTAGSPKTCDRKKDENYRSLPRDPSSWSNQFQRDNARSSLSASHPMVDRWLEKQEQDEEGTEEDSSRVEPVGHADTGLENMPNFSLDDMVKLVQVPNDGGPLGIHVVPFSARGGRTLGLLVKRLEKGGKAEQENLFHENDCIVRINDGDLRNRRFEQAQHMFRQAMRARVIWFHVVPAANKEQYEQLSQREKNNYSPGRFSPDSHCVANRSVANNAPQALPRAPRLSQPPEQLDAHPRLPHSAHASTKPPAAPALAPPSVLSTNVGSVYNTKKVGKRLNIQLKKGTEGLGFSITSRDVTIGGSAPIYVKNILPRGAAIQDGRLKAGDRLIEVNGVDLAGKSQEEVVSLLRSTKMEGTVSLLVFRQEEAFHPREMNAEPSQMQTPKETKAEDEDVVLTPDGTREFLTFEVPLNDSGSAGLGVSVKGNRSKENHADLGIFVKSIINGGAASKDGRLRVNDQLIAVNGESLLGKANQEAMETLRRSMSTEGNKRGMIQLIVARRISRCNELRSPGSPAAPELPIETELDDRERRISHSLYSGIEGLDESPTRNAALSRIMGESGT
Consider B2, for which the binding entry is reported as “binds”.
